The values that follow come from PMC8887470.

Protein sequences, listed by entry. Tags and fused reporters are not part of them. Lines headed by an entry give the natural chain unless they say otherwise; changes in a name come on top. Residues count along the entry.
UniProt Q60793: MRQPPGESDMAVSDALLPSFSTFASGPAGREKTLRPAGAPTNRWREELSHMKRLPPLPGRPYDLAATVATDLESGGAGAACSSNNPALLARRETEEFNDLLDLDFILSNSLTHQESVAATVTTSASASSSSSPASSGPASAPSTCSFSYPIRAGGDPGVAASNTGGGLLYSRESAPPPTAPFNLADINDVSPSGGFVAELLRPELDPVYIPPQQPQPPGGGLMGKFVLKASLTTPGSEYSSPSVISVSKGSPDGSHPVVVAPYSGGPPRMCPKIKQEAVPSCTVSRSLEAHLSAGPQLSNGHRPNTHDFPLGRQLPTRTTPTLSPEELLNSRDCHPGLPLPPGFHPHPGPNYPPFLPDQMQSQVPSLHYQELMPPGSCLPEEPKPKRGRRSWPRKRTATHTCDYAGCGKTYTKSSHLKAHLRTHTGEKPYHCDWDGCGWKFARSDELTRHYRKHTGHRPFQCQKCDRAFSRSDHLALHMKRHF
GST-Klf4 fragment 401-483 aa: residues 401-483 of Q60793
UniProt Q9JIF0: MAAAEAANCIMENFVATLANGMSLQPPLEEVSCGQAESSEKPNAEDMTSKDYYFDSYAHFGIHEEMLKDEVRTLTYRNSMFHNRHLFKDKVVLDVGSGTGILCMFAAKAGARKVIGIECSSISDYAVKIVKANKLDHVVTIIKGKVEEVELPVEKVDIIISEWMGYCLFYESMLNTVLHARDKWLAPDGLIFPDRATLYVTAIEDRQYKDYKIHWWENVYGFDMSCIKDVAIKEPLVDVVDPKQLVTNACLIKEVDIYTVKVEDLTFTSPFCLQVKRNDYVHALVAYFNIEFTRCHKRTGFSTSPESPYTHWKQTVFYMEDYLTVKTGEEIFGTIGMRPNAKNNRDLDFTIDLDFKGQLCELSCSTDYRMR
UniProt O09106: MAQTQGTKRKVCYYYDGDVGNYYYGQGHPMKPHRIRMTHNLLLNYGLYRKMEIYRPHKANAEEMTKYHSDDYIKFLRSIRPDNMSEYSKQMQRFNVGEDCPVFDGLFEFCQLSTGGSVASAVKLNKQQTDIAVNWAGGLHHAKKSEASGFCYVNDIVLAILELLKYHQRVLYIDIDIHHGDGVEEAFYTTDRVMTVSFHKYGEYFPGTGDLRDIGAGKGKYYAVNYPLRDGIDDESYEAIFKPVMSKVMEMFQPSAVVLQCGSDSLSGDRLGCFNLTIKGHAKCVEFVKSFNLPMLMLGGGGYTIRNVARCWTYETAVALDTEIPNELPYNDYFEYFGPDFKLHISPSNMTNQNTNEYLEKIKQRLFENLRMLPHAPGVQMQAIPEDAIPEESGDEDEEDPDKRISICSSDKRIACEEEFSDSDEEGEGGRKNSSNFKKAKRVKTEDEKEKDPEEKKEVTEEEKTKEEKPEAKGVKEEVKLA
UniProt P70288: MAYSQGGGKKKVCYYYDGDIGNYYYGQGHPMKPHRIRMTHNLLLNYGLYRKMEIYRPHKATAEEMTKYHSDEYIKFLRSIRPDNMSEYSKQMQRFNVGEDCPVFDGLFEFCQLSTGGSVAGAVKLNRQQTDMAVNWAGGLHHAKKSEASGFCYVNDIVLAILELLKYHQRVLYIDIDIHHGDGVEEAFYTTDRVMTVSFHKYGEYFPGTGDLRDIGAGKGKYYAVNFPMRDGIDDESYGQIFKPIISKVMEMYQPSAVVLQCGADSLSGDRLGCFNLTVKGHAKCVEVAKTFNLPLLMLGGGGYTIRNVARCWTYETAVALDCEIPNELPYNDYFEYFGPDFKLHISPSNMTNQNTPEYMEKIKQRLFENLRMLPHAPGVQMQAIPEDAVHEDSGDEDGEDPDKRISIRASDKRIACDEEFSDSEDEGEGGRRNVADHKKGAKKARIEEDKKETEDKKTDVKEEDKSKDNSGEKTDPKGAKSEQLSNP

One assay has as its target Myc-Klf4 (mouse) (UniProt Q60793). The experiment in a line: co-IP; whole-cell extracts of HEK293T cells transfected with Myc-Klf4 and/or FLAG-Prmt1; IP with anti-Myc, blot with anti-FLAG and anti-Myc.
Assay [1] addresses GST-Klf4 fragment 401-483 aa (mouse) (UniProt Q60793). The experiment in a line: pull-down; GST-KLF4 or truncated KLF4 bound to glutathione-sepharose, incubated with lysate of HEK293T cells expressing FLAG-Prmt1 in RIPA lysis buffer, 4 h, 4°C; blot with anti-FLAG; only the target purified.
Assay [2] concerns the target Klf4 (endogenous, E14 ES cells) (mouse (endogenous in E14)) (UniProt Q60793). The experiment in a line: co-IP; endogenous proteins; whole-cell extracts of WT and Prmt1 KO E14 cells, IP with an anti-Klf4 antibody, blots for the partners; IgG as negative control.
For assay [3], the target named is FLAG-Klf4 (WT), in E14 cells (mouse) (UniProt Q60793). The experiment in a line: co-IP; whole-cell extracts of E14 cells transfected with FLAG-Klf4 (WT) or its R396 mutants; IP with anti-FLAG, blots for HDAC1, HDAC2, mSin3a; IgG as negative control.

Results are given in words; binding and its absence hold for the method and conditions named. Binding seen in cells or lysates may run through a third protein. Some entries that bind do so weakly or less than the wild type.

Regarding “FLAG-Prmt1 (from UniProt Q9JIF0 1-371) (enzyme)”, the binding result (with Myc-Klf4 (mouse); in assay [1]) was “binds” throughout.
With “HDAC1 (endogenous, E14 ES cells) (from UniProt O09106 1-482)”, the binding result in assay [2] and in assay [3] was “binds” throughout.
For “HDAC2 (endogenous, E14 ES cells) (from UniProt P70288 1-488)”, the binding result in assay [2] and in assay [3] was “binds” throughout.

B1: mSin3a (endogenous, E14 ES cells) (protein, UniProt Q60520 1-1274)
chain: MKRRLDDQESPVYAAQQRRIPGSTEAFSHQHRVLAPAPPVYEAVSETMQSATGIQYSVAPNYQVSAVPQSSGSHGPAIAAVHSSHHHPTAVQPHGGQVVQSHAHPAPPVAPVQGQQQFQRLKVEDALSYLDQVKLQFGSQPQVYNDFLDIMKEFKSQSIDTPGVISRVSQLFKGHPDLIMGFNTFLPPGYKIEVQTNDMVNVTTPGQVHQIPTHGIQPQPQPPPQHPSQPSSQSAPTPAQPAPQPTAAKVSKPSQLQAHTPASQQTPPLPPYASPRSPPVQPHTPVTISLGTAPSLQNNQPVEFNHAINYVNKIKNRFQGQPDIYKAFLEILHTYQKEQRNAKEAGGNYTPALTEQEVYAQVARLFKNQEDLLSEFGQFLPDANSSVLLSKTTAEKVDSVRNDHGGTVKKPQLNNKPQRPSQNGCQIRRHSGTGATPPVKKKPKLMSLKESSMADASKHGVGTESLFFDKVRKALRSAEAYENFLRCLVIFNQEVISRAELVQLVSPFLGKFPELFNWFKNFLGYKESVHLESFPKERATEGIAMEIDYASCKRLGSSYRALPKSYQQPKCTGRTPLCKEVLNDTWVSFPSWSEDSTFVSSKKTQYEEHIYRCEDERFELDVVLETNLATIRVLEAIQKKLSRLSAEEQAKFRLDNTLGGTSEVIHRKALQRIYADKAADIIDGLRKNPSIAVPIVLKRLKMKEEEWREAQRGFNKVWREQNEKYYLKSLDHQGINFKQNDTKVLRSKSLLNEIESIYDERQEQATEENAGVPVGPHLSLAYEDKQILEDAAALIIHHVKRQTGIQKEDKYKIKQIMHHFIPDLLFAQRGDLSDVEEEEEEEMDVDEATGAPKKHNGVGGSPPKSKLLFSNTAAQKLRGMDEVYNLFYVNNNWYIFMRLHQILCLRLLRICSQAERQIEEENREREWEREVLGIKRDKSDSPAIQLRLKEPMDVDVEDYYPAFLDMVRSLLDGNIDSSQYEDSLREMFTIHAYIAFTMDKLIQSIVRQLQHIVSDEVCVQVTDLYLAENNNGATGGQLNSQTSRSLLESAYQRKAEQLMSDENCFKLMFIQSQGQVQLTVELLDTEEENSDDPVEAERWSDYVERYMSSDTTSPELREHLAQKPVFLPRNLRRIRKCQRGREQQEKEGKEGNSKKTMENVESLDKLECRFKLNSYKMVYVIKSEDYMYRRTALLRAHQSHERVSKRLHQRFQAWVDKWTKEHVPREMAAETSKWLMGEGLEGLVPCTTTCDTETLHFVSINKYRVKYGTVFKAP
For B1, the binding entry in assay [2] and in assay [3] was “binds” throughout.
